Assay results: publication PMC9578707
These are yes or no findings as the source states them, for the method shown. Some results given as binding are weak or reduced against the parent protein; the word gives no strength.

Assays:
PTPRT ECD (human) = molecular target: T1, PTPRT ECD (human) (UniProt O14522); assay: SPR; Biacore T100; biotinylated receptor ECD or hit protein captured on a streptavidin chip (~100-200 RU), non-biotinylated secreted ligand as analyte in twofold dilutions; HBS-P+ buffer; 1:1 Langmuir model or equilibrium fit; both purified
T1 sequence (chain, biotin where captured on the streptavidin chip): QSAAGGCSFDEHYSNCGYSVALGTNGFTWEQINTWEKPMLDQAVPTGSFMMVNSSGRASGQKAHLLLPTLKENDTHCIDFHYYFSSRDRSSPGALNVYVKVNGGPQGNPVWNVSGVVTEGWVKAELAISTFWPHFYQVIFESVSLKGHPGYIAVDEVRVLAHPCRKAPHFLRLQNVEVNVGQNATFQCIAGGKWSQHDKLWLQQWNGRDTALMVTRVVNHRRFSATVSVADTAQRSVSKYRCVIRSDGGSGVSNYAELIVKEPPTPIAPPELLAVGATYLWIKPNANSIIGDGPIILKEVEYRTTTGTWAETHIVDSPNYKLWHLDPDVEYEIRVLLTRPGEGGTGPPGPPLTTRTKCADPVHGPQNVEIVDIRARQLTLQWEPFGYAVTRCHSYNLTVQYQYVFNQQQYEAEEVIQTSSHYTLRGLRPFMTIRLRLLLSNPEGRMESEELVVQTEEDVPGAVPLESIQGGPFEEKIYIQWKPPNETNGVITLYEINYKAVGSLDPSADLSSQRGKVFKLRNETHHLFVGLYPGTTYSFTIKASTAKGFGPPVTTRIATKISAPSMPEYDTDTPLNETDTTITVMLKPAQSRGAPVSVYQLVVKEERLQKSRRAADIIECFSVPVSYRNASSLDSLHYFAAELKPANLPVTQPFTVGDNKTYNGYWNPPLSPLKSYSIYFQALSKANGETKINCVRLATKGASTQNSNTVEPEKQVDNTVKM

[1] = molecular target: T2, PTPRU (CRISPRa-induced on K562 cells) (human (endogenous in K562)) (UniProt Q92729); assay: CRISPRa enrichment screen (magnetic bead selection of cells, deep sequencing of sgRNAs); biotinylated ligand (1 µM) on streptavidin microbeads with K562 sunCas9 cells carrying pooled sgRNA libraries (mini-library, TM1 or TM2+); 4°C, 30 min, MACS buffer; up to three rounds of MACS positive selection; hits called with casTLE and ESP score; only the binder purified
T2 sequence: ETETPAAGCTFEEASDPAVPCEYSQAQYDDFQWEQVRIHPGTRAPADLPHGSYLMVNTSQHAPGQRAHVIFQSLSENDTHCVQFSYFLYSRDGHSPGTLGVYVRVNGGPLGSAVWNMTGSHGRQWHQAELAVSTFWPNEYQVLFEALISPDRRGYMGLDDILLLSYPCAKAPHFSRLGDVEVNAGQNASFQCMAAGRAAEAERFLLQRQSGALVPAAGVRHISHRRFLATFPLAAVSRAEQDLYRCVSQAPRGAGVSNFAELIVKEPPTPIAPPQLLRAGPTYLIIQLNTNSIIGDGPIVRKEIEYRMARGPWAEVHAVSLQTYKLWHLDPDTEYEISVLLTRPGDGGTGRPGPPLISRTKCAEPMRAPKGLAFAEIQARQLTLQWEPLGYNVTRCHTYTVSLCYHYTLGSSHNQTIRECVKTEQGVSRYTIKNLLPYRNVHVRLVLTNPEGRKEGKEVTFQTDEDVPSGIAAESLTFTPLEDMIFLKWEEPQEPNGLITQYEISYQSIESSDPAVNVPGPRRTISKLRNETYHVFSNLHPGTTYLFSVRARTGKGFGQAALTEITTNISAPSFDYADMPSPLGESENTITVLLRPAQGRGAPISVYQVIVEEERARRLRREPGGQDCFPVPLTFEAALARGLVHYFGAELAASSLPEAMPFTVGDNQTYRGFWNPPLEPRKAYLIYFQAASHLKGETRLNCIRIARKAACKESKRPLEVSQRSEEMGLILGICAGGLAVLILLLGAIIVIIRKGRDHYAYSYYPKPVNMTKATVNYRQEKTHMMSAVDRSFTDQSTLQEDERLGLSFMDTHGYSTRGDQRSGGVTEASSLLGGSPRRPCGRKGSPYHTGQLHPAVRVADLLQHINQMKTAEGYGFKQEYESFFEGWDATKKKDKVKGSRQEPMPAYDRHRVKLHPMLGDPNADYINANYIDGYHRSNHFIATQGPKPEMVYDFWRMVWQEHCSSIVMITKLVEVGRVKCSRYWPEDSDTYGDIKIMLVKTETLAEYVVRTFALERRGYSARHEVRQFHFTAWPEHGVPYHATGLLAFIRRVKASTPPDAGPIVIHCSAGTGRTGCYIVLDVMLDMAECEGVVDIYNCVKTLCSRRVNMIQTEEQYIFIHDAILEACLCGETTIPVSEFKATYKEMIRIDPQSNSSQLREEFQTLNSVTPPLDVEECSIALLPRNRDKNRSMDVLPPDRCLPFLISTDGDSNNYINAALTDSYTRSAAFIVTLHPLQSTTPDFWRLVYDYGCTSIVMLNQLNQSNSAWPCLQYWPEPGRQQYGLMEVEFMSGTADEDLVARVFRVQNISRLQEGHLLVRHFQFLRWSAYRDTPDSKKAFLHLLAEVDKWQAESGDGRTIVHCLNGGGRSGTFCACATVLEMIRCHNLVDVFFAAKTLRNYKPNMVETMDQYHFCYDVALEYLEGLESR

binding (PTPRT ECD (human)): no binding
binding [1]: binds
B1: Osteocrin (ligand, UniProt P61366 28-133)
chain: VDVTTTEAFDSGVIDVQSTPTVREEKSATDLTAKLLLLDELVSLENDVIETKKKRSFSGFGSPLDRLSAGSVDHKGKQRKVVDHPKRRFGIPMDRIGRNRLSNSRG
modifications: biotin (biotinylated in vitro with BirA) where used on beads
